Measurements as given in PubChem BioAssay AID504648 (National Center for Advancing Translational Sciences (NCATS), 2011).
In all, about 390,000 compounds went through this assay and about 610 (0.16%) were called active. Inconclusive results, whose numbers are uncertain, are shown with a selection of clear calls. Calls come from the whole dose curve; as a rule, active = well fitted inhibition curve with a large enough effect; inconclusive = small, poorly fitted or top-dose-only effect, or effect the other way, or another doubt; inactive = no such curve, though single readings can be large or run the other way. Potencies of inconclusive entries are doubtful fits and often do not repeat.

Experiment: Nrf2 qHTS screen for inhibitors: counterscreen for cytotoxicity
Conditions: A549 ARE-Fluc cells, CellTiter-Fluor viability, 18-24 h; activity change, negative = cytotoxicity: at 46 µM (top of the series)
Outline: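 Cytotoxicity counterscreen: CellTiter-Fluor fluorescence was measured in A549 ARE_Fluc cells after 18-24 h of compound exposure in a concentration series. The subsequent BugLite luminescent read reports ARE-luciferase activity.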
% is set by controls: 0 for no effect and ±100 for the full control effect; potency is the fitted concentration of half-maximal effect.

SMILES | Potency | activity change, negative = cytotoxicity
Cc1ccc(-n2nnnc2CCl)cc1 | inconclusive: 29.1 µM [falling, single point] | –
Cc1ccc(Cn2cc(CCC(=O)NCC(C)c3ccccc3)c3ccccc32)cc1 (stereo unspecified) | inconclusive: 29.1 µM [falling, partial curve, poor fit] | –
COCCn1c(C)cc(O)c(C(c2ccccc2F)N2CCN(c3ccccc3)CC2)c1=O (stereo unspecified) | – | inactive: 17%
Cc1cc(NC(=O)c2c(F)cccc2F)n(-c2nc3ccccc3[nH]2)n1 | inconclusive: 29.1 µM [falling, single point] | –
Cc1cc(=O)n(C)c(=O)n1CCCCCOc1cccc([N+](=O)[O-])c1 | inconclusive: 6.51 µM [activator, partial curve, poor fit] | –
CN(C)CCCN(C(=O)CCc1ccccc1)c1nc2ccc(Br)cc2s1 | – | inactive: 2.48%
O=C1NC(=S)S/C1=C\c1ccc(SCc2ccccc2)o1 | inconclusive: 11.6 µM [falling, partial curve] | –
COc1cc2c(C#CCCO)c(-c3ccc(C#N)cc3)oc(=O)c2cc1OC | – | inactive: 1.83%
CCC(=O)N1CCN(c2ccc(NC(=O)c3ccc([N+](=O)[O-])o3)cc2)CC1 | inconclusive: 23.1 µM [falling, single point] | –
Cc1ccc(S(=O)(=O)N(C(=O)c2ccncc2)c2ccc(OC(=O)c3ccncc3)c3ccccc23)cc1 | – | inactive: -15.9%
CCOc1ccc(CNC(=O)c2ccc(NC(=O)N3CCSc4ncccc43)cc2)cc1 | – | inactive: 1.55%
CCOc1ccccc1CNC(=O)c1cc2occc2n1C | – | inactive: 0.0285%
COc1cccc(N=Cc2c(O)n(-c3cccc(C)n3)c(=O)c3ccccc23)c1 | inconclusive: 20.6 µM [falling, partial curve] | –
COc1ccc(C2=C(C=C(C#N)C#N)C(c3ccccc3C)c3ccccc3O2)cc1OC (stereo unspecified) | inconclusive: 32.6 µM [falling, partial curve, poor fit] | –
COc1cccc(OCC(=O)N(C)Cc2nc(-c3cccc(C)c3)no2)c1 | inconclusive: 0.0116 µM [activator, full curve, poor fit] | –
C=C(Cl)COc1ccc2c(CCC)cc(=O)oc2c1 | inconclusive: 29.1 µM [activator, partial curve, poor fit] | –
Oc1ccc(C[C@@H]2CNCCN2CCc2cc(C(F)(F)F)cc(C(F)(F)F)c2)cc1 | inconclusive: 29.1 µM [falling, single point] | –
CC(C)[C@H]1COCCS(=O)(=O)N1Cc1ccccc1-c1cccc2c1oc1ccccc12 | – | inactive: -3.89%
N#C/C(=C\c1ccccc1)C(=O)NC1CC1 | inconclusive: 32.6 µM [activator, partial curve, poor fit] | –
O=C(Nc1ccccc1)C(=O)Nc1ccccn1 | – | inactive: 3.23%
Cc1ccc(C)c(N2CCN(C(=O)c3cn(C)c4ccc(S(=O)(=O)N(C)C)cc4c3=O)CC2)c1 | inconclusive: 29.1 µM [falling, single point] | –
CCNc1c2c(nc3ccccc13)CC(C)(C)CC2=O | – | inactive: -16.9%

An excerpt of these results, as a markdown table:

| SMILES | Potency | activity change, negative = cytotoxicity |
| --- | --- | --- |
| N#C/C(=C\c1ccccc1)C(=O)NC1CC1 | inconclusive: 32.6 µM [activator, partial curve, poor fit] | – |
| O=C(Nc1ccccc1)C(=O)Nc1ccccn1 | – | inactive: 3.23% |
| Cc1ccc(C)c(N2CCN(C(=O)c3cn(C)c4ccc(S(=O)(=O)N(C)C)cc4c3=O)CC2)c1 | inconclusive: 29.1 µM [falling, single point] | – |

Continued.

SMILES | Potency | activity change, negative = cytotoxicity
Cc1ccccc1NCc1ccc(O)c2ncccc12 | inconclusive: 29.1 µM [falling, single point] | –
Cc1ccc(-n2nc(C)c(C(=O)NCCCN3CCN(c4cccc(Cl)c4)CC3)c2-n2cccc2)cc1 | inconclusive: 20.6 µM [falling, partial curve, poor fit] | –
CC(C)(C)C1=CC(=Nc2ccccc2N)C=C(C(C)(C)C)C1=O | inconclusive: 29.1 µM [falling, single point] | –
O/N=C/c1cn(-c2ccccc2)nc1-c1ccc2c(c1)OCCO2 | inconclusive: 32.6 µM [activator, partial curve, poor fit] | –
O=C(CSc1nc(-c2ccccc2)c(-c2ccccc2)o1)NC1CCS(=O)(=O)C1 (stereo unspecified) | – | inactive: -11.4%
COc1cc(OC)c(C=CC(=O)c2ccccc2O)c(OC)c1 | inconclusive: 16.4 µM [falling, partial curve, poor fit] | –
O=[N+]([O-])c1ccc(-c2nc(-c3cccs3)c(-c3cccs3)[nH]2)cc1 | inconclusive: 29.1 µM [falling, single point] | –
O=C(Cn1cnc2c(nnn2Cc2ccc(F)cc2)c1=O)N1CCN(c2ccccc2)CC1 | inconclusive: 20.6 µM [activator, single point] | –
CCc1ccc(NC(=O)Cn2c(=O)nc(-c3ccccc3F)c3cc(Cl)ccc32)cc1 | inconclusive: 14.6 µM [falling, single point] | –
COc1cc(/C=C2/C(=O)N(c3cccc(Br)c3)N=C2C)cc(OC)c1O | inconclusive: 18.4 µM [activator, partial curve, poor fit] | –
CCOC(=O)c1sc2nc(CC(=O)OC)nc(N3CCN(c4ccc(OC)cc4)CC3)c2c1C | – | inactive: -14.7%
CCOC(=O)C1CCCN(C(=O)c2ccc([N+](=O)[O-])c(C)c2)C1 (stereo unspecified) | inconclusive: 2.91 µM [activator, full curve, poor fit] | –
Cc1ccc(C)c(NC(=O)CN(C)C(=O)c2ccc3[nH]c4c(c3c2)CC(C)CC4)c1 (stereo unspecified) | inconclusive: 29.1 µM [falling, single point] | –
O=C(c1cccs1)N1CCC(c2nc(-c3ccc(S(=O)(=O)N4CCOCC4)cc3)no2)CC1 | – | inactive: -0.498%
Cc1ccc2cc(C)c3nnc(SCC(=O)Nc4nc5c(s4)CCCC5)n3c2c1C | inconclusive: 32.6 µM [falling, single point] | –
O=S(=O)(NCCOc1ccc(F)cc1)c1ccc2c(c1)OCCO2 | inconclusive: 5.8 µM [falling, partial curve, poor fit] | –
Cc1ccc(C)c(SCC(=O)Nc2cccc(S(=O)(=O)N3CCOCC3)c2)c1 | inconclusive: 29.1 µM [falling, single point] | –
COc1ccc(-c2ccc(OC)c([C@H]3[C@@H]4C=CCC[C@@]4(C)C(=O)N3Cc3ccccc3)c2)cc1OC | inconclusive: 20.6 µM [falling, single point] | –
CCOC(=O)c1nc(Nc2ccc(Nc3ccccc3)cc2)c2ccccc2n1 | inconclusive: 20.6 µM [falling, partial curve, poor fit] | –
CCn1nc(C(=O)OCC(=O)c2cc(C)n(Cc3cccs3)c2C)c2ccccc2c1=O | inconclusive: 6.51 µM [falling, single point] | –
Cc1ccc(NC(=O)C2CCCN(C(=O)c3cnn(-c4ccccc4)c3-n3cccc3)C2)cc1 (stereo unspecified) | – | inactive: -6.14%
Cc1nn(-c2ccccc2)c(-n2cccc2)c1C(=O)N1CCN(c2ccccc2)CC1 | – | inactive: 3.89%

SMILES | Potency | activity change, negative = cytotoxicity
COc1ccc(C2(c3ccc(OC)cc3)NC(=O)N(CC(=O)Nc3ccc(OC(F)F)cc3)C2=O)cc1 | inconclusive: 23.1 µM [falling, partial curve, poor fit] | –
CCc1nnc(NC(=O)CSc2nc3c([nH]c4ccccc43)c(=O)n2-c2ccc(F)cc2)s1 | – | inactive: -1.86%
Cc1cc(Cl)ccc1OCCCC(=O)N1CCOCC1 | inconclusive: 20.6 µM [activator, partial curve, poor fit] | –
N#CC1=C(N)C(C#N)(C#N)C2(C(=O)Nc3ccccc32)C2CCCC=C12 (stereo unspecified) | – | inactive: -7.65%
Cc1ccc(NC(=O)COC(=O)CCCC2=NS(=O)(=O)c3ccccc3N2)cc1C | inconclusive: 3.66 µM [falling, partial curve, poor fit] | –
Cc1ccc(-n2c(Cc3ccccc3)nnc2SCC(=O)NNC(=O)Cc2ccccc2)cc1 | inconclusive: 4.61 µM [activator, partial curve, poor fit] | –
Cc1ccc(N(CC(O)Cn2c3ccccc3c3ccccc32)S(=O)(=O)c2ccc(F)cc2)cc1 (stereo unspecified) | inconclusive: 20.6 µM [falling, partial curve, poor fit] | –
Cn1cc(S(=O)(=O)N2CCCCCC2)cc1C(=O)N1CCN(c2ccccc2F)CC1 | – | inactive: 5.14%
COc1ccc2oc(C(=O)NCC(c3ccco3)N(C)C)c(C)c2c1 (stereo unspecified) | – | inactive: 8.25%
COc1cccc2cc(C(=O)c3ccccc3)oc12 | – | inactive: 10%
COc1cccc(Cn2c(NCc3cccnc3)nc3c2c(=O)n(C)c(=O)n3C)c1 | – | inactive: -15.3%
CC(C)C(c1nnnn1Cc1ccc2c(c1)OCO2)N1CCN(C)CC1 (stereo unspecified) | inconclusive: 9.2 µM [activator, single point] | –
Cc1ccc(CNC(=O)c2c[nH]n3c(=O)c(Cc4ccc(Cl)cc4)c(C)nc23)cc1 | – | inactive: -8.44%
Cc1ccc(CCNC(=O)c2c3c(nc4ccccc24)C(=O)N(C2CCCCC2)C3)cc1 | inconclusive: 20.6 µM [falling, single point] | –
NC(=O)CC[C@@H]1NC(=O)[C@H](CO)NC(=O)c2cc([N+](=O)[O-])cc(I)c2NCC[C@@H](C(N)=O)NC1=O | inconclusive: 16.4 µM [falling, partial curve, poor fit] | –
CCCCCCCC(=O)N/N=C/c1ccc(Br)cc1 | inconclusive: 29.1 µM [falling, single point] | –
Cn1ccc(=NC=C(C#N)C#N)c2ccccc21 | inconclusive: 14.6 µM [falling, partial curve, poor fit] | –
CCOc1ccc(NC(=O)CSc2nnc(-c3ccc(OCC)cc3)o2)cc1 | – | inactive: 14.7%
Cc1cccc(NC(=O)COc2ccc(-c3nn(C)c(=O)c4ccccc34)cc2)c1 | inconclusive: 29.1 µM [falling, single point] | –
O=[N+]([O-])c1ccc(N=Nc2ccc(O)cc2O)cc1 | inconclusive: 20.6 µM [falling, single point] | –
C[n+]1cc(C(=O)N2CCCCC2)ccc1/C=C/c1c[nH]c2ccccc12 | inconclusive: 13 µM [falling, partial curve] | –
COc1ccc(Cn2cc(C(=O)c3ccc(C)c(C)c3)c(=O)c3ccccc32)cc1 | inconclusive: 16.4 µM [falling, partial curve] | –
